In PubChem BioAssay AID248 (DTP/NCI, 2004):
The list does not hold the whole screen: it is rich in T/C values a quarter to a half above the control, in often repeated tests (any T/C) and in doses without a T/C. Further doses and runs are listed elsewhere. T/C gives the treated animals as a percentage of the vehicle group. Some doses have a count of surviving animals in place of a T/C: the source files T/C as zero there, which appears to mark a toxic dose or a test without result, not a measured value. Some doses without a T/C left all or most animals alive at the check, yet need not have been tolerated: survival well below the control is almost never listed, so the zero probably covers shortened survival too. Counts of survivors are from the toxicity check (mostly the fifth day) where no day follows; animals may have died later. Schedules are NCI's codes, read here as Q, the interval in days (D) or hours (H), X, the number of doses. Some schedule codes hold Z or #, which are not explained here. For survival time, this PubChem deposit counts one and a half times the control or more as active, and values a quarter to a half above the control carry no call in these data; other NCI protocols may use other cut-offs. Some entries were tested several times; their values stand side by side, smallest first. Counts like (3×) say how often a value occurs here. Some T/C values carry the count of animals alive at the toxicity check (mostly the fifth day); where none is given, no animal had died by that day.

System: L1210 leukemia ip in BDF1 mice, survival T/C
Experiment: NCI In Vivo Anticancer Drug Screen. Data for tumor model L1210 Leukemia (intraperitoneal) in B6D2F1 (BDF1) mice
Conditions: higher T/C = longer survival

Which T/C (T/C endpoint: mean survival time, dose: 62.5 micrograms/kg/injection, schedule: Q03HX024 (ip), vehicle: clinical formulation) does the source give for CC[C@]1(O)C[C@H]2CN(CCc3c([nH]c4ccccc34)[C@@](C(=O)OC)(c3cc4c(cc3OC)N(C=O)[C@H]3[C@@](O)(C(=O)OC)[C@H](OC(C)=O)[C@]5(CC)C=CCN6CC[C@]43[C@@H]65)C2)C1 here?
Its T/C is 131 % of control.

What about the T/C (T/C endpoint: mean survival time, dose: 95.0 micrograms/kg/injection, schedule: Q01DX009 (ip), vehicle: saline) of the same molecule?
The T/C was 109, 117, 126, 132 % of control.

And the T/C (T/C endpoint: mean survival time, dose: 125.0 micrograms/kg/injection, schedule: Q03HX024 (ip), vehicle: clinical formulation)?
Its T/C is 133 % of control.

And the T/C (T/C endpoint: mean survival time, dose: 190.0 micrograms/kg/injection, schedule: Q01DX009 (ip), vehicle: saline)?
The T/C was 129 (2×), 130, 132 % of control.

And the T/C (T/C endpoint: mean survival time, dose: 250.0 micrograms/kg/injection, schedule: Q01DX009 (ip), vehicle: clinical formulation)?
Its T/C is 145 % of control.

What about the T/C (T/C endpoint: mean survival time, dose: 250.0 micrograms/kg/injection, schedule: Q03HX008 (ip), vehicle: clinical formulation) of the same molecule?
Its T/C is 127 % of control.

What about the T/C (T/C endpoint: mean survival time, dose: 250.0 micrograms/kg/injection, schedule: Q03HX016 (ip), vehicle: clinical formulation) of the same molecule?
Its T/C is 141 % of control.

And the T/C (T/C endpoint: mean survival time, dose: 360.0 micrograms/kg/injection, schedule: Q04DX003 (ip), vehicle: saline)?
The T/C was 126 % of control.

What about the T/C (T/C endpoint: mean survival time, dose: 370.0 micrograms/kg/injection, schedule: Q01DX009 (ip), vehicle: saline) of the same molecule?
Its T/C is 102, 133, 135, 164 % of control.

And the T/C (T/C endpoint: mean survival time, dose: 500.0 micrograms/kg/injection, schedule: Q01DX009 (ip), vehicle: clinical formulation)?
Its T/C is 131 % of control.

What about the T/C (T/C endpoint: mean survival time, dose: 500.0 micrograms/kg/injection, schedule: Q03HX008 (ip), vehicle: clinical formulation) of the same molecule?
The T/C was 132 % of control [9 of 10 alive].

And the T/C (T/C endpoint: mean survival time, dose: 500.0 micrograms/kg/injection, schedule: Q03HX016 (ip), vehicle: clinical formulation)?
The T/C was 131 % of control [9 of 10 alive].

What about the T/C (T/C endpoint: mean survival time, dose: 1000.0 micrograms/kg/injection, schedule: Q04DX003 (ip), vehicle: clinical formulation) of the same molecule?
Its T/C is 131 % of control.

And the T/C (T/C endpoint: mean survival time, dose: 2000.0 micrograms/kg/injection, schedule: Q04DX003 (ip), vehicle: clinical formulation)?
Its T/C is 147 % of control.

And the T/C (T/C endpoint: mean survival time, dose: 4000.0 micrograms/kg/injection, schedule: Q08DX002 (ip), vehicle: clinical formulation)?
Its T/C is 134 % of control.

What about the T/C (T/C endpoint: median survival time, dose: 0.05 mg/kg/injection, schedule: Q01DX009 (ip), vehicle: water) of the same molecule?
The T/C was 131 % of control.

What about the T/C (T/C endpoint: median survival time, dose: 0.1 mg/kg/injection, schedule: Q01DX001 (ip), vehicle: water, evaluated on day 5) of the same molecule?
The T/C was 107 and 108 % of control.

What about the T/C (T/C endpoint: median survival time, dose: 0.1 mg/kg/injection, schedule: Q01DX001 (ip), vehicle: water, evaluated on day 30) of the same molecule?
Its T/C is 107 % of control.

What about the T/C (T/C endpoint: median survival time, dose: 0.1 mg/kg/injection, schedule: Q01DX001 (ip), vehicle: water, evaluated on day 31) of the same molecule?
Its T/C is 108 % of control.

And the T/C (T/C endpoint: median survival time, dose: 0.1 mg/kg/injection, schedule: Q01DX009 (ip), vehicle: water)?
The T/C was 131 % of control.

What about the T/C (T/C endpoint: median survival time, dose: 0.12 mg/kg/injection, schedule: Q01DX009 (ip), vehicle: water) of the same molecule?
The T/C was 125 % of control.

And the T/C (T/C endpoint: median survival time, dose: 0.2 mg/kg/injection, schedule: Q01DX001 (ip), vehicle: water, evaluated on day 5)?
Its T/C is 114 and 117 % of control.

And the T/C (T/C endpoint: median survival time, dose: 0.2 mg/kg/injection, schedule: Q01DX001 (ip), vehicle: water, evaluated on day 30)?
The T/C was 117 % of control.

What about the T/C (T/C endpoint: median survival time, dose: 0.2 mg/kg/injection, schedule: Q01DX001 (ip), vehicle: water, evaluated on day 31) of the same molecule?
The T/C was 114 % of control.

And the T/C (T/C endpoint: median survival time, dose: 0.2 mg/kg/injection, schedule: Q01DX009 (ip), vehicle: water, evaluated on day 5)?
The T/C was 133 % of control.

What about the T/C (T/C endpoint: median survival time, dose: 0.2 mg/kg/injection, schedule: Q01DX009 (ip), vehicle: water, evaluated on day 30) of the same molecule?
The T/C was 127 % of control.

And the T/C (T/C endpoint: median survival time, dose: 0.4 mg/kg/injection, schedule: Q01DX001 (ip), vehicle: water, evaluated on day 5)?
The T/C was 117 and 119 % of control.

What about the T/C (T/C endpoint: median survival time, dose: 0.4 mg/kg/injection, schedule: Q01DX001 (ip), vehicle: water, evaluated on day 30) of the same molecule?
The T/C was 119 % of control.

And the T/C (T/C endpoint: median survival time, dose: 0.4 mg/kg/injection, schedule: Q01DX001 (ip), vehicle: water, evaluated on day 31)?
Its T/C is 117 % of control.

What about the T/C (T/C endpoint: median survival time, dose: 0.5 mg/kg/injection, schedule: Q01DX001 (ip), vehicle: saline) of the same molecule?
The T/C was 125 % of control.

What about the T/C (T/C endpoint: median survival time, dose: 0.5 mg/kg/injection, schedule: Q01DX002 (ip), vehicle: water, evaluated on day 5) of the same molecule?
Its T/C is 126 % of control.

What about the T/C (T/C endpoint: median survival time, dose: 0.5 mg/kg/injection, schedule: Q01DX002 (ip), vehicle: water, evaluated on day 20) of the same molecule?
Its T/C is 126 % of control.

And the survivor count (T/C endpoint: median survival time, dose: 0.5 mg/kg/injection, schedule: Q01DX009 (ip), vehicle: water)?
Its survivor count is 6 of 8.

What about the T/C (T/C endpoint: median survival time, dose: 0.5 mg/kg/injection, schedule: Q## X001 (ip), vehicle: saline) of the same molecule?
The T/C was 125 % of control.

What about the survivor count (T/C endpoint: median survival time, dose: 0.8 mg/kg/injection, schedule: Q01DX009 (ip), vehicle: water) of the same molecule?
Its survivor count is 5 of 8.

What about the T/C (T/C endpoint: median survival time, dose: 1.0 mg/kg/injection, schedule: Q01DX001 (ip), vehicle: saline) of the same molecule?
Its T/C is 128 and 131 % of control.

And the T/C (T/C endpoint: median survival time, dose: 1.0 mg/kg/injection, schedule: Q01DX002 (ip), vehicle: water, evaluated on day 5)?
Its T/C is 133 % of control.

And the T/C (T/C endpoint: median survival time, dose: 1.0 mg/kg/injection, schedule: Q01DX002 (ip), vehicle: water, evaluated on day 20)?
Its T/C is 133 % of control.

And the survivor count (T/C endpoint: median survival time, dose: 1.0 mg/kg/injection, schedule: Q01DX009 (ip), vehicle: water)?
Its survivor count is 3 of 8.

And the T/C (T/C endpoint: median survival time, dose: 1.0 mg/kg/injection, schedule: Q## X001 (ip), vehicle: saline)?
Its T/C is 128 % of control.

What about the T/C (T/C endpoint: median survival time, dose: 1.6 mg/kg/injection, schedule: Q01DX001 (ip), vehicle: water, evaluated on day 5) of the same molecule?
The T/C was 130 % of control.

And the T/C (T/C endpoint: median survival time, dose: 1.6 mg/kg/injection, schedule: Q01DX001 (ip), vehicle: water, evaluated on day 30)?
The T/C was 130 % of control.

What about the survivor count (T/C endpoint: median survival time, dose: 2.0 mg/kg/injection, schedule: Q01DX009 (ip), vehicle: water) of the same molecule?
The survivor count was 1 of 8.

And the T/C (T/C endpoint: median survival time, dose: 4.0 mg/kg/injection, schedule: Q01DX001 (ip), vehicle: saline)?
The T/C was 141 % of control.

And the T/C (T/C endpoint: median survival time, dose: 4.0 mg/kg/injection, schedule: Q01DX001 (ip), vehicle: water, evaluated on day 5)?
The T/C was 129 % of control.

What about the T/C (T/C endpoint: median survival time, dose: 4.0 mg/kg/injection, schedule: Q01DX001 (ip), vehicle: water, evaluated on day 20) of the same molecule?
Its T/C is 129 % of control.

What about the survivor count (T/C endpoint: median survival time, dose: 4.0 mg/kg/injection, schedule: Q01DX002 (ip), vehicle: water) of the same molecule?
The survivor count was 3 of 8.

And the T/C (T/C endpoint: median survival time, dose: 4.0 mg/kg/injection, schedule: Q## X001 (ip), vehicle: saline)?
Its T/C is 141 % of control.

And the survivor count (T/C endpoint: median survival time, dose: 8.0 mg/kg/injection, schedule: Q01DX001 (ip), vehicle: water)?
Its survivor count is 7 of 8.

And the survivor count (T/C endpoint: median survival time, dose: 8.0 mg/kg/injection, schedule: Q## X001 (ip), vehicle: saline)?
Its survivor count is 9 of 10.
